Values of other authors as cited in patent US20260256792A1, “TREATMENT OF CHRONIC SPONTANEOUS URTICARIA BY ADMINISTERING (R)-2-[3-[4-AMINO-3-(2-FLUORO-4-PHENOXY-PHENYL)PYRAZOLO[3,4-D]PYRIMIDIN-1-YL]PIPERIDINE-1-CARBONYL]-4-METHYL-4-[4-(OXETAN-3-YL)PIPERAZIN-1-YL]PENT-2-ENENITRILE” (priority 2023, published 2026).
At least one compound was matched to its structure with a doubt left.

Tested on: 251 kinases sharing a common cysteine in their active site
Conditions: 1 μM; cited from earlier work

C=CC(=O)N1CCC[C@@H](n2nc(-c3ccc(Oc4ccccc4)cc3)c3c(N)ncnc32)C1 [ibrutinib, reference compound]
number of kinases inhibited (>90% inhibition) of 251 kinases: 21
